Our source for the binding values is patent US20250368752A1 (AMPSOURCE BIOPHARMA SHANGHAI, published 2025).

The target in this test is T1, human TFPI with a His tag (human, UniProt P10646 29-282, limits assumed).
T1 construct: Coupled to Ni-NTA sensors at 10 ug/mL for BLI; not shown: His tag
T1 sequence (looked up): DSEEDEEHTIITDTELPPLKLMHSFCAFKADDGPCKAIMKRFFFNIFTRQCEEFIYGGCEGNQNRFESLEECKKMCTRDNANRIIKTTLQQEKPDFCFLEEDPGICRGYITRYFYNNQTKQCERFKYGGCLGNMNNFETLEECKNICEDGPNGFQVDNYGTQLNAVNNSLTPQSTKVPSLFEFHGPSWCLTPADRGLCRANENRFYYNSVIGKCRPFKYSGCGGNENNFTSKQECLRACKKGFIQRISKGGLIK
Description: BLI (ForteBio Octet), His-tagged human TFPI on Ni-NTA sensors. For orientation: Biolayer interferometry detects binding as a change in optical thickness at a sensor tip.

Results are given in words; binding and its absence hold for the method and conditions named. Some results given as binding are weak or reduced against the parent protein; the word gives no strength.

B1: mouse monoclonal antibody against human TFPI, mAb3-71 (antibody, V domains shown)
VH: QVQLQQPEAELMKPGASVKLSCKASGYTFTSYWMHWVKQRPGQGLEWIGEIKPDNGRINYNEKFKTKATLAVDKSSSTAYMQLNSLTSGDSAVYYCARSSVVDVAMDYWGQGTSVSVSS
VL: QIVLTQSPAIMSASPGEKVTLTCSASSSVSSSYLYWYQQKPGSSPKLWISGTSILASGVPARFSGSGSGTSYSLTISSMEAEDTASYFCHQWSHYPFTFGSGTKLEIK
notes: also called hybridoma cell line #3-71
For the molecule B1, the binding result is “binds”.
